Reference: publication PMC7948961, “Proteomic identification and validation of novel interactions of the putative tumor suppressor PRELP with membrane proteins including IGFI-R and p75NTR” (The Journal of Biological Chemistry, 2021)

T1: Human PRELP (proline and arginine-rich end leucine-rich repeat protein) with a C-terminal FLAG tag, overexpressed in Expi293 cells (human) (UniProt P51888)
T1 sequence: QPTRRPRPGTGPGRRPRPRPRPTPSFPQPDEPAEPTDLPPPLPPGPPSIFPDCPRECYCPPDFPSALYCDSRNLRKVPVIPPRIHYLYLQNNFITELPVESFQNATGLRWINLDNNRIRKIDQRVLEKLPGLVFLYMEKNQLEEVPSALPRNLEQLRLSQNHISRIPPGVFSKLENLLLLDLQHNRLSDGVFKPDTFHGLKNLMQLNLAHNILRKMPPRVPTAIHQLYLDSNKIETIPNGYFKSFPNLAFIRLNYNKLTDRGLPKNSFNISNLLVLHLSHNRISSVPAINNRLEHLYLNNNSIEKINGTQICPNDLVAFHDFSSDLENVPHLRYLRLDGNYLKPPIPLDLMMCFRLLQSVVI


Target: T1, Human PRELP (proline and arginine-rich end leucine-rich repeat protein) with a C-terminal FLAG tag, overexpressed in Expi293 cells (human)
Experiment: affinity purification with mass spectrometry; CoIP-MS: DDM extract (0.1% DDM, PBS pH 7.4) of the membrane fraction of Expi293 cells expressing PRELP-FLAG, captured on DDDDK-tagged Protein Purification Gel overnight at 4 °C, eluted with FLAG peptide; S-Trap digestion, LC-MS/MS; compared with control-transfected cells

binding | Binder
binds | CDK5 regulatory subunit-associated protein 3 (protein, UniProt Q96JB5 1-506) MEDHQHVPIDIQTSKLLDWLVDRRHCSLKWQSLVLTIREKINAAIQDMPESEEIAQLLSGSYIHYFHCLRILDLLKGTEASTKNIFGRYSSQRMKDWQEIIALYEKDNTYLVELSSLLVRNVNYEIPSLKKQIAKCQQLQQEYSRKEEECQAGAAEMREQFYHSCKQYGITGENVRGELLALVKDLPSQLAEIGAAAQQSLGEAIDVYQASVGFVCESPTEQVLPMLRFVQKRGNSTVYEWRTGTEPSVVERPHLEELPEQVAEDAIDWGDFGVEAVSEGTDSGISAEAAGIDWGIFPESDSKDPGGDGIDWGDDAVALQITVLEAGTQAPEGVARGPDALTLLEYTETRNQFLDELMELEIFLAQRAVELSEEADVLSVSQFQLAPAILQGQTKEKMVTMVSVLEDLIGKLTSLQLQHLFMILASPRYVDRVTEFLQQKLKQSQLLALKKELMVQKQQEALEEQAALEPKLDLLLEKTKELQKLIEADISKRYSGRPVNLMGTSL
binds | Adhesion G-protein-coupled receptor L2 (receptor, UniProt O95490 26-1459) FSRAALPFGLVRRELSCEGYSIDLRCPGSDVIMIESANYGRTDDKICDADPFQMENTDCYLPDAFKIMTQRCNNRTQCIVVTGSDVFPDPCPGTYKYLEVQYECVPYIFVCPGTLKAIVDSPCIYEAEQKAGAWCKDPLQAADKIYFMPWTPYRTDTLIEYASLEDFQNSRQTTTYKLPNRVDGTGFVVYDGAVFFNKERTRNIVKFDLRTRIKSGEAIINYANYHDTSPYRWGGKTDIDLAVDENGLWVIYATEQNNGMIVISQLNPYTLRFEATWETVYDKRAASNAFMICGVLYVVRSVYQDNESETGKNSIDYIYNTRLNRGEYVDVPFPNQYQYIAAVDYNPRDNQLYVWNNNFILRYSLEFGPPDPAQVPTTAVTITSSAELFKTIISTTSTTSQKGPMSTTVAGSQEGSKGTKPPPAVSTTKIPPITNIFPLPERFCEALDSKGIKWPQTQRGMMVERPCPKGTRGTASYLCMISTGTWNPKGPDLSNCTSHWVNQLAQKIRSGENAASLANELAKHTKGPVFAGDVSSSVRLMEQLVDILDAQLQELKPSEKDSAGRSYNKLQKREKTCRAYLKAIVDTVDNLLRPEALESWKHMNSSEQAHTATMLLDTLEEGAFVLADNLLEPTRVSMPTENIVLEVAVLSTEGQIQDFKFPLGIKGAGSSIQLSANTVKQNSRNGLAKLVFIIYRSLGQFLSTENATIKLGADFIGRNSTIAVNSHVISVSINKESSRVYLTDPVLFTLPHIDPDNYFNANCSFWNYSERTMMGYWSTQGCKLVDTNKTRTTCACSHLTNFAILMAHREIAYKDGVHELLLTVITWVGIVISLVCLAICIFTFCFFRGLQSDRNTIHKNLCINLFIAEFIFLIGIDKTKYAIACPIFAGLLHFFFLAAFAWMCLEGVQLYLMLVEVFESEYSRKKYYYVAGYLFPATVVGVSAAIDYKSYGTEKACWLHVDNYFIWSFIGPVTFIILLNIIFLVITLCKMVKHSNTLKPDSSRLENIKSWVLGAFALLCLLGLTWSFGLLFINEETIVMAYLFTIFNAFQGVFIFIFHCALQKKVRKEYGKCFRHSYCCGGLPTESPHSSVKASTTRTSARYSSGTQSRIRRMWNDTVRKQSESSFISGDINSTSTLNQGMTGNYLLTNPLLRPHGTNNPYNTLLAETVVCNAPSAPVFNSPGHSLNNARDTSAMDTLPLNGNFNNSYSLHKGDYNDSVQVVDCGLSLNDTAFEKMIISELVHNNLRGSSKTHNLELTLPVKPVIGGSSSEDDAIVADASSLMHSDNPGLELHHKELEAPLIPQRTHSLLYQPQKKVKSEGTDSYVSQLTAEAEDHLQSPNRDSLYTSMPNLRDSPYPESSPDMEEDLSPSRRSENEDIYYKSMPNLGAGHQLQMCYQISRGNSDGYIIPINKEGCIPEGDVREGQMQLVTSL
binds | Thioredoxin-related transmembrane protein 4 (protein, UniProt Q9H1E5 24-349) TAGPEEAALPPEQSRVQPMTASNWTLVMEGEWMLKFYAPWCPSCQQTDSEWEAFAKNGEILQISVGKVDVIQEPGLSGRFFVTTLPAFFHAKDGIFRRYRGPGIFEDLQNYILEKKWQSVEPLTGWKSPASLTMSGMAGLFSISGKIWHLHNYFTVTLGIPAWCSYVFFVIATLVFGLFMGLVLVVISECFYVPLPRHLSERSEQNRRSEEAHRAEQLQDAEEEKDDSNEEENKDSLVDDEEEKEDLGDEDEAEEEEEEDNLAAGVDEERSEANDQGPPGEDGVTREEVEPEEAEEGISEQPCPADTEVVEDSLRQRKSQHADKGL
binds | Protocadherin-7 (protein, UniProt O60245 29-1069) AAKQLLRYRLAEEGPADVRIGNVASDLGIVTGSGEVTFSLESGSEYLKIDNLTGELSTSERRIDREKLPQCQMIFDENECFLDFEVSVIGPSQSWVDLFEGQVIVLDINDNTPTFPSPVLTLTVEENRPVGTLYLLPTATDRDFGRNGIERYELLQEPGGGGSGGESRRAGAADSAPYPGGGGNGASGGGSGGSKRRLDASEGGGGTNPGGRSSVFELQVADTPDGEKQPQLIVKGALDREQRDSYELTLRVRDGGDPPRSSQAILRVLITDVNDNSPRFEKSVYEADLAENSAPGTPILQLRAADLDVGVNGQIEYVFGAATESVRRLLRLDETSGWLSVLHRIDREEVNQLRFTVMARDRGQPPKTDKATVVLNIKDENDNVPSIEIRKIGRIPLKDGVANVAEDVLVDTPIALVQVSDRDQGENGVVTCTVVGDVPFQLKPASDTEGDQNKKKYFLHTSTPLDYEATREFNVVIVAVDSGSPSLSSNNSLIVKVGDTNDNPPMFGQSVVEVYFPENNIPGERVATVLATDADSGKNAEIAYSLDSSVMGIFAIDPDSGDILVNTVLDREQTDRYEFKVNAKDKGIPVLQGSTTVIVQVADKNDNDPKFMQDVFTFYVKENLQPNSPVGMVTVMDADKGRNAEMSLYIEENNNIFSIENDTGTIYSTMSFDREHQTTYTFRVKAVDGGDPPRSATATVSLFVMDENDNAPTVTLPKNISYTLLPPSSNVRTVVATVLATDSDDGINADLNYSIVGGNPFKLFEIDPTSGVVSLVGKLTQKHYGLHRLVVQVNDSGQPSQSTTTLVHVFVNESVSNATAIDSQIARSLHIPLTQDIAGDPSYEISKQRLSIVIGVVAGIMTVILIILIVVMARYCRSKNKNGYEAGKKDHEDFFTPQQHDKSKKPKKDKKNKKSKQPLYSSIVTVEASKPNGQRYDSVNEKLSDSPSMGRYRSVNGGPGSPDLARHYKSSSPLPTVQLHPQSPTAGKKHQAVQDLPPANTFVGAGDNISIGSDHCSEYSCQTNNKYSKQMRLHPYITVFG
binds | Thioredoxin-related transmembrane protein 1 (protein, UniProt Q9H3N1 27-280) RRSNVRVITDENWRELLEGDWMIEFYAPWCPACQNLQPEWESFAEWGEDLEVNIAKVDVTEQPGLSGRFIITALPTIYHCKDGEFRRYQGPRTKKDFINFISDKEWKSIEPVSSWFGPGSVLMSSMSALFQLSMWIRTCHNYFIEDLGLPVWGSYTVFALATLFSGLLLGLCMIFVADCLCPSKRRRPQPYPYPSKKLLSESAQPLKKVEEEQEADEEDVSEEEAESKEGTNKDFPQNAIRQRSLGPSLATDKS
binds | Protocadherin-20 (protein, UniProt Q8N6Y1 61-951) SYSRATELLYSLNEGLPAGVLIGSLAEDLRLLPRSAGRPDPQSQLPERTGAEWNPPLSFSLASRGLSGQYVTLDNRSGELHTSAQEIDREALCVEGGGGTAWSGSVSISSSPSDSCLLLLDVLVLPQEYFRFVKVKIAIRDINDNAPQFPVSQISVWVPENAPVNTRLAIEHPAVDPDVGINGVQTYRLLDYHGMFTLDVEENENGERTPYLIVMGALDRETQDQYVSIIIAEDGGSPPLLGSATLTIGISDINDNCPLFTDSQINVTVYGNATVGTPIAAVQAVDKDLGTNAQITYSYSQKVPQASKDLFHLDENTGVIKLFSKIGGSVLESHKLTILANGPGCIPAVITALVSIIKVIFRPPEIVPRYIANEIDGVVYLKELEPVNTPIAFFTIRDPEGKYKVNCYLDGEGPFRLSPYKPYNNEYLLETTKPMDYELQQFYEVAVVAWNSEGFHVKRVIKVQLLDDNDNAPIFLQPLIELTIEENNSPNAFLTKLYATDADSEERGQVSYFLGPDAPSYFSLDSVTGILTVSTQLDREEKEKYRYTVRAVDCGKPPRESVATVALTVLDKNDNSPRFINKDFSFFVPENFPGYGEIGVISVTDADAGRNGWVALSVVNQSDIFVIDTGKGMLRAKVSLDREQQSSYTLWVEAVDGGEPALSSTAKITILLLDINDNPPLVLFPQSNMSYLLVLPSTLPGSPVTEVYAVDKDTGMNAVIAYSIIGRRGPRPESFRIDPKTGNITLEEALLQTDYGLHRLLVKVSDHGYPEPLHSTVMVNLFVNDTVSNESYIESLLRKEPEINIEEKEPQISIEPTHRKVESVSCMPTLVALSVISLGSITLVTGMGIYICLRKGEKHPREDENLEVQIPLKGKIDLHMRERKPMDISNI
binds | Copine-1 (protein, UniProt Q99829 1-537) MAHCVTLVQLSISCDHLIDKDIGSKSDPLCVLLQDVGGGSWAELGRTERVRNCSSPEFSKTLQLEYRFETVQKLRFGIYDIDNKTPELRDDDFLGGAECSLGQIVSSQVLTLPLMLKPGKPAGRGTITVSAQELKDNRVVTMEVEARNLDKKDFLGKSDPFLEFFRQGDGKWHLVYRSEVIKNNLNPTWKRFSVPVQHFCGGNPSTPIQVQCSDYDSDGSHDLIGTFHTSLAQLQAVPAEFECIHPEKQQKKKSYKNSGTIRVKICRVETEYSFLDYVMGGCQINFTVGVDFTGSNGDPSSPDSLHYLSPTGVNEYLMALWSVGSVVQDYDSDKLFPAFGFGAQVPPDWQVSHEFALNFNPSNPYCAGIQGIVDAYRQALPQVRLYGPTNFAPIINHVARFAAQAAHQGTASQYFMLLLLTDGAVTDVEATREAVVRASNLPMSVIIVGVGGADFEAMEQLDADGGPLHTRSGQAAARDIVQFVPYRRFQNAPREALAQTVLAEVPTQLVSYFRAQGWAPLKPLPPSAKDPAQAPQA
binds | Transmembrane emp24 domain-containing protein 1 (protein, UniProt Q13445 24-227) AGPPPIQDGEFTFLLPAGRKQCFYQSAPANASLETEYQVIGGAGLDVDFTLESPQGVLLVSESRKADGVHTVEPTEAGDYKLCFDNSFSTISEKLVFFELIFDSLQDDEEVEGWAEAVEPEEMLDVKMEDIKESIETMRTRLERSIQMLTLLRAFEARDRNLQEGNLERVNFWSAVNVAVLLLVAVLQVCTLKRFFQDKRPVPT

Results are given in words; binding and its absence hold for the method and conditions named. In cells and extracts the contact can be indirect. These calls come from enrichment with a bait or labelling near it, and not all partners need be listed. Sequences can lack the tags named with a protein.
